# No constants are given. Whether binding was seen depends on the method and setting. Some results given as binding are weak or reduced against the parent protein; the word gives no strength.
# T1: wild type maize endosperm AGP large subunit (SH2 protein, encoded by shrunken-2) (maize) (UniProt P55241)
# T1 sequence (looked up): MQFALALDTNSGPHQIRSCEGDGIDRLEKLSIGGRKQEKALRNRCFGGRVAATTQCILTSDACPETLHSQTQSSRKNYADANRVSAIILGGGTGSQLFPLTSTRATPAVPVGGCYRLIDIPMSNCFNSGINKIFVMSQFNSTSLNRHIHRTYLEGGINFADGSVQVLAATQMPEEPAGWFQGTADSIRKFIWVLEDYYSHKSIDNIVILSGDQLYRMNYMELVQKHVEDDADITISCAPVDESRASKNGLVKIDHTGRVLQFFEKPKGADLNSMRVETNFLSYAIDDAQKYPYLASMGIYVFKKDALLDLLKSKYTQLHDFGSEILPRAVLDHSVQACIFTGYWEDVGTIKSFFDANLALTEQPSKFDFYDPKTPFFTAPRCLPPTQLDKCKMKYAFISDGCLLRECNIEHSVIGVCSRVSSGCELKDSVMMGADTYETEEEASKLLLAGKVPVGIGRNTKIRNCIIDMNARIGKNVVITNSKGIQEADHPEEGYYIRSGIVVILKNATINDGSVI
# B1: wild type maize endosperm AGP small subunit (BT2 protein, encoded by brittle-2) (enzyme)
# chain: MDMALASKASPPPWNATAAEQPIPKRDKAAANDSTYLNPQAHDSVLGIILGGGAGTRLYPLTKKRAKPAVPLGANYRLIDIPVSNCLNSNISKIYVLTQFNSASLNRHLSRAYGSNIGGYKNEGFVEVLAAQQSPDNPNWFQGTADAVRQYLWLFEEHNVMEFLILAGDHLYRMDYEKFIQAHRETNADITVAALPMDEKRATAFGLMKIDEEGRIIEFAEKPKGEQLKAMMVDTTILGLDDVRAKEMPYIASMGIYVFSKDVMLQLLREQFPEANDFGSEVIPGATSIGKRVQAYLYDGYWEDIGTIAAFYNANLGITKKPIPDFSFYDRFAPIYTQPRHLPPSKVLDADVTDSVIGEGCVIKNCKINHSVVGLRSCISEGAIIEDSLLMGADYYETEADKKLLAEKGGIPIGIGKNSCIRRAIIDKNARIGDNVKILNADNVQEAAMETDGYFIKGGIVTVIKDALLPSGTVI
# B2: QTCL mutant maize endosperm AGP small subunit (Tyr36 to Cys and a glutamine inserted between Ser34 and Thr35) (enzyme)
# chain: MDMALASKASPPPWNATAAEQPIPKRDKAAANDSQTCLNPQAHDSVLGIILGGGAGTRLYPLTKKRAKPAVPLGANYRLIDIPVSNCLNSNISKIYVLTQFNSASLNRHLSRAYGSNIGGYKNEGFVEVLAAQQSPDNPNWFQGTADAVRQYLWLFEEHNVMEFLILAGDHLYRMDYEKFIQAHRETNADITVAALPMDEKRATAFGLMKIDEEGRIIEFAEKPKGEQLKAMMVDTTILGLDDVRAKEMPYIASMGIYVFSKDVMLQLLREQFPEANDFGSEVIPGATSIGKRVQAYLYDGYWEDIGTIAAFYNANLGITKKPIPDFSFYDRFAPIYTQPRHLPPSKVLDADVTDSVIGEGCVIKNCKINHSVVGLRSCISEGAIIEDSLLMGADYYETEADKKLLAEKGGIPIGIGKNSCIRRAIIDKNARIGDNVKILNADNVQEAAMETDGYFIKGGIVTVIKDALLPSGTVI
# Target: T1, wild type maize endosperm AGP large subunit (SH2 protein, encoded by shrunken-2) (maize)
# Assay: blue native gel of purified E. coli-expressed AGP (small subunit with SH2 large subunit)
binder,measurement,value
B1,binding,binds
B2,binding,binds

# — patent US20110167519A1
